Results reported in PubChem BioAssay AID1487 (National Center for Advancing Translational Sciences (NCATS), 2009).
Some of the results follow. Shown are side measurements of this screen, not its main read-out; they come without a call. Most of these compounds were active or inconclusive in the main read-out, so they are no random draw. Words in brackets tell the shape of the fitted curve; partial curves, single points and poor fits give uncertain potencies.

Assay: qHTS Assay for Modulators of Lamin A Splicing
Settings: HeLa LMNA splicing GFP/RFP minigene ratio, 48 h
Summary of the method: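 S3 HeLa cells stably expressing lamin A-EGFP splicing minigene plus DsRed2, 600 cells/well, 48 h compound exposure at 37C. Laser-scanning cytometry; analysed as GFP (500-530 nm)/RFP (575-640 nm) total intensity ratio; 0.5% DMSO vehicle.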

[1] = measured here: GFP splicing reporter channel
[2] = measured here: RFP viability control channel

SMILES	AC50 [1]	AC50 [2]
Cc1ccc2nc(Nc3nc(CSc4nnc(C)s4)cc(=O)[nH]3)nc(C)c2c1	15.8 µM [falling, single point]	35.5 µM [falling, single point]
C=CCn1c(C)cc(C2=NNC(=NCC)SC2)c1C	7.08 µM [rising, partial curve, poor fit]	17.8 µM [rising, partial curve, poor fit]
CCN(CC)c1ncnc2c1ncn2Cc1c(Cl)cccc1Cl	–	35.5 µM [rising, single point]
CCC1Oc2ccc(C)cc2N(Cc2cccc(C)c2)C1=O (configuration not stated)	–	7.08 µM [rising, partial curve, poor fit]
Cc1ccc(C(=O)Oc2ccc(Cl)c3cccnc23)cc1[N+](=O)[O-]	3.16 µM [falling, single point]	5.62 µM [falling, single point]
O=C(Nc1ccc2c(c1)OCCO2)c1ccc(Br)c(S(=O)(=O)N2CCOCC2)c1	–	20 µM [rising, partial curve, poor fit]
CNC(=O)CSc1nnnn1-c1ccc(C)cc1C	–	0.891 µM [rising, single point]
CCOCCc1nn2c(=O)cc(COC(=O)Cc3ccccc3)nc2s1	0.282 µM [falling, full curve, poor fit]	0.316 µM [falling, full curve, poor fit]
Cc1cccc(C(=O)NC(=S)NNC(=O)COc2c(C)cccc2C)c1	35.5 µM [rising, single point]	31.6 µM [rising, single point]
O=C(CSc1ccccc1)Nc1nc2ccccc2[nH]1	–	35.5 µM [rising, single point]
COc1cccc(/C=N/NC(=O)c2ccc(CN3c4cccc5cccc(c45)S3(=O)=O)cc2)c1	–	20 µM [rising, single point]
COc1ccc2occ(C(=O)c3coc4ccc(O)c(CN(C)C)c34)c2c1	35.5 µM [rising, single point]	17.8 µM [rising, single point]
COc1cccc(CNC(=O)CCC2CCCN(C3CCOCC3)C2)c1 (configuration not stated)	0.0224 µM [rising, full curve]	–
COc1ccc(C2NC(=S)NC3=C2CCc2ccccc23)cc1OC (configuration not stated)	–	8.91 µM [rising, partial curve]
C/C(=N/NS(=O)(=O)c1ccccc1)c1ccc(Cl)cc1	–	15.8 µM [falling, partial curve, poor fit]
CC(=O)N1CCN(C2=NC(=O)/C(=C\c3cccs3)S2)CC1	0.141 µM [falling, partial curve, poor fit]	15.8 µM [falling, single point]
Cc1c(O)cc2n(c1=O)-c1ccc(Cl)cc1C2(C)C	–	12.6 µM [rising, partial curve]

SMILES	AC50 [1]	AC50 [2]
COc1ccc(NS(=O)(=O)c2c(F)cc(F)c(Cl)c2F)cc1S(=O)(=O)N1CCCCC1	–	12.6 µM [rising, partial curve]
COc1ccc(-c2csc(Nc3ccc(S(=O)(=O)Nc4cc(OC)nc(OC)n4)cc3)n2)cc1	15.8 µM [rising, single point]	22.4 µM [rising, partial curve]
CC(=O)CSc1ncnc2sc3c(c12)CCC(C)C3 (configuration not stated)	35.5 µM [rising, partial curve, poor fit]	35.5 µM [rising, partial curve, poor fit]
O=C(Nc1ncccn1)c1cc(-c2cccc(Br)c2)nc2ccccc12	17.8 µM [rising, single point]	31.6 µM [rising, single point]
COc1c(O)cc2oc3cc(O)c(CC=C(C)C)c(O)c3c(=O)c2c1CC=C(C)C	35.5 µM [falling, single point]	–
O=C(Nc1ccc(Cl)c(Cl)c1)OCCNC(=O)c1cccc(Cl)c1	12.6 µM [rising, partial curve, poor fit]	15.8 µM [rising, single point]
CSc1nsc(/C=C/Nc2ccc(C)cc2)c1C#N	6.31 µM [rising, partial curve]	–
O=S(=O)(c1cccc2nonc12)N1CCN(c2ccccc2F)CC1	14.1 µM [falling, partial curve]	8.91 µM [falling, partial curve, poor fit]
O=C1C=CC(=O)N1CCNc1ncc(C(F)(F)F)cc1Cl	7.08 µM [falling, partial curve]	7.08 µM [falling, partial curve, poor fit]
COc1ccc(-c2csc(NC(=O)c3ccccc3NS(=O)(=O)c3ccc(C)cc3)n2)cc1	–	3.55 µM [rising, full curve]
CC(=O)Nc1ccc(NC(=O)C(C)OC(=O)C2(c3ccc(Cl)cc3)CCCC2)cc1 (configuration not stated)	–	14.1 µM [rising, single point]
CCOC(=O)c1nnn(-c2nonc2N)c1CSc1ccc(C)cc1	14.1 µM [rising, partial curve]	12.6 µM [rising, partial curve]
Cc1cc(=O)c2c(O)c(O)ccc2o1	15.8 µM [falling, partial curve]	11.2 µM [falling, partial curve]
CN1CCN(C(=S)c2ccc(OCC(=O)Nc3cccc(C(F)(F)F)c3)cc2)CC1	7.94 µM [rising, partial curve, poor fit]	12.6 µM [rising, partial curve]
c1ccc(-n2nnnc2Sc2ncnc3sc4c(c23)CCCC4)cc1	–	0.1 µM [rising, full curve]
COc1ccc(-c2noc(N3CCC(C(=O)N4CCN(c5ccccc5F)CC4)CC3)n2)cc1	11.2 µM [falling, partial curve, poor fit]	10 µM [falling, partial curve, poor fit]
C1CC2CN(c3nc4nonc4nc3N3CCSCC3)CCN2C1 (configuration not stated)	35.5 µM [falling, partial curve, poor fit]	0.0112 µM [falling, full curve, poor fit]

Compounds above containing an NH in an aromatic ring:
SMILES	AC50 [1]	AC50 [2]
Cc1ccc2nc(Nc3nc(CSc4nnc(C)s4)cc(=O)[nH]3)nc(C)c2c1	15.8 µM [falling, single point]	35.5 µM [falling, single point]
O=C(CSc1ccccc1)Nc1nc2ccccc2[nH]1	–	35.5 µM [rising, single point]
